Reference: PubChem BioAssay AID624297 (National Center for Advancing Translational Sciences (NCATS), 2012)
About 6,200 (1.8%) of roughly 340,000 compounds were called active. Inconclusive results, whose numbers are uncertain, are shown with a selection of clear calls. Calls come from the whole dose curve; as a rule, active = well fitted activation curve with a large enough effect; inconclusive = small, poorly fitted or top-dose-only effect; inactive = no such curve, though single readings can be large or run the other way. Potencies of inconclusive entries are doubtful fits and often do not repeat.

Assay: A quantitative high throughput screen for small molecules that induce DNA re-replication in SW480 colon adenocarcinoma cells. Note: nearly all actives have a fitted effect of over 55% in size.
Conditions: Hoechst DNA content imaging, 48 h; series mostly up to 46.1 µM
Summary of the method: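 Quantitative HTS format with DMSO vehicle controls; 48 hr drug incubation at 37 C, then 40 min Hoechst staining and scanning imager measurement at 405 nm excitation.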
Potency is the fitted concentration of half-maximal effect.

Row | SMILES | Potency
1 | Cc1cccc(NC(=O)CSCC(=O)N(C)Cc2c(F)cccc2Cl)c1 | inactive
2 | COc1cc(SC)ccc1C(=O)NCCc1ccccc1 | inconclusive: 23.1 µM [activator, single point]
3 | Cc1occc1C(=O)N1CCN(c2ccccc2)CC1 | inconclusive: 23.1 µM [activator, partial curve, poor fit]
4 | CC[C@@]1(O)C[C@H](O[C@H]2C[C@@H](N(C)C)[C@@H](O[C@H]3C[C@@H](O)[C@@H](O[C@H]4CCC(=O)[C@@H](C)O4)[C@@H](C)O3)[C@@H](C)O2)c2c(cc3c(c2O)C(=O)c2c(O)cccc2C3=O)[C@H]1C(=O)OC | inactive
5 | CSc1cccc(NC(=S)N2CCCN(Cc3cccc(Cl)c3)C2)c1 | inconclusive: 25.9 µM [activator, single point]
6 | O=[N+]([O-])c1ccc(N=Nc2c(Cl)cc(O)cc2Cl)cc1 | inconclusive: 16.4 µM [activator, partial curve]
7 | O=C(N/N=C/c1ccccc1O)C(=O)Nc1ccccn1 | inactive
8 | Cc1nc([N+](=O)[O-])c(Sc2nc3ccccc3[nH]2)n1Cc1ccccc1 | inconclusive: 18.4 µM [activator, single point]
9 | COC(=O)c1ccc(C2C(C(C)=O)=C(C)Nc3ncnn32)cc1 (stereo not drawn) | inconclusive: 20.6 µM [activator, partial curve, poor fit]
10 | CC(C(=O)NCc1ccco1)n1ccc2cc(S(=O)(=O)N3CCCCC3)ccc21 (stereo not drawn) | inconclusive: 32.6 µM [activator, single point]
11 | COCCCNC(=O)C(=O)Nc1cc2c3c(c1)CCC(=O)N3CCC2 | inconclusive: 3.26 µM [activator, partial curve, poor fit]
12 | OC(COc1ccc(CNCc2cccnc2)cc1)CN1CCc2ccccc2C1 (stereo not drawn) | inconclusive: 32.6 µM [activator, partial curve, poor fit]
13 | COc1cccc(CN(C)C(=O)[C@@H](NC(=O)c2ccc(C)cc2)C(C)C)c1 | inactive
14 | CCOC(=O)C[C@H]1c2ccc(C(F)(F)F)cc2S(=O)(=O)N1C(C)(C)C | inconclusive: 0.116 µM [activator, full curve, poor fit]
15 | COc1ccc(CN2CCNC(=O)C2CC(=O)N(C)Cc2nc(C)cs2)c(OC)c1 (stereo not drawn) | inactive
16 | COc1ccc(CSc2nc(N3CCOCC3)c3c(c2C#N)CC(C)(C)OC3)cc1 | inactive
17 | O=C(CN1C(=O)S/C(=C\c2cc(Cl)c(O)c(Cl)c2)C1=O)Nc1ccccc1 | inactive
18 | Cc1sc2ncnc(N/N=C/c3ccccc3O)c2c1C | inconclusive: 1.84 µM [activator, full curve]
19 | CC[C@]12c3[nH]c4ccccc4c3CCN1C(=O)C(CC(=O)NCc1ccco1)C[C@@H]2C(=O)N1CCN(C(=O)c2ccco2)CC1 (stereo partly drawn) | inactive
20 | COc1cccc(-c2nnc3sc(-c4cccs4)nn23)c1 | inactive
21 | O=C(O)c1ccc(N2C(=O)CC(SC(=NCc3ccc4c(c3)OCO4)Nc3ccccc3)C2=O)cc1 (stereo not drawn) | inconclusive: 6.51 µM [activator, single point]
22 | c1ccc2c(-c3ccc(OCCN4CCCCC4)cc3)c(-c3ccsc3)sc2c1 | inconclusive: 18.4 µM [activator, single point]

3 structures out of the list, ordered by heavy-atom count, ascending.
Row | SMILES | Potency
22 | c1ccc2c(-c3ccc(OCCN4CCCCC4)cc3)c(-c3ccsc3)sc2c1 | inconclusive: 18.4 µM [activator, single point]
12 | OC(COc1ccc(CNCc2cccnc2)cc1)CN1CCc2ccccc2C1 (stereo not drawn) | inconclusive: 32.6 µM [activator, partial curve, poor fit]
19 | CC[C@]12c3[nH]c4ccccc4c3CCN1C(=O)C(CC(=O)NCc1ccco1)C[C@@H]2C(=O)N1CCN(C(=O)c2ccco2)CC1 (stereo partly drawn) | inactive

Next part.

Row | SMILES | Potency
23 | Cc1sc2nc(C3CC3)nc(N3CCN(S(=O)(=O)c4ccc(F)cc4)CC3)c2c1C | inconclusive: 6.51 µM [activator, single point]
24 | Cc1ccccc1C(=O)Nc1ccc(C(=O)N/N=C/c2ccc(F)cc2)cc1 | inconclusive: 18.4 µM [activator, single point]
25 | Cc1noc(/C=C/c2ccccn2)c1[N+](=O)[O-] | inactive
26 | COc1ccc2c(c1)-c1ccccc1S(=O)(=O)N(C)C2 | inconclusive: 29.1 µM [activator, single point]
27 | COc1ccccc1P(=O)(Cc1ccccc1)c1ccccc1 (stereo not drawn) | inactive
28 | Fc1cccc(Cn2cc(C(=S)N3CCCCC3)c3ccccc32)c1 | inactive
29 | c1ccc(COc2ccc(CNCc3cccs3)cc2)cc1 | inactive
30 | Cc1ccccc1CNc1ccc(C(CC(N)=O)NC(=O)c2ccc(Br)cc2)cc1[N+](=O)[O-] (stereo not drawn) | inconclusive: 2.31 µM [activator, full curve, poor fit]
31 | CS(=O)(=O)N(CC(=O)N/N=C/c1ccco1)c1ccccc1Br | inactive
32 | Cc1cccc(N2CCN(CC(=O)NCc3ccc(Cl)cc3)CC2)c1C | inconclusive: 18.4 µM [activator, single point]
33 | O=C(NC1CCCCC1)c1ccc([N+](=O)[O-])o1 | inconclusive: 4.61 µM [activator, single point]
34 | COc1cc2[nH]c(=O)n(CCC(=O)N3CCc4ccccc4C3)c(=O)c2cc1OC | inactive
35 | CC(=O)NCC(=O)OCC(=O)c1ccc(Cl)cc1 | inconclusive: 20.6 µM [activator, single point]
36 | O=S1(=O)CC(O)C(N(CCO)C(=S)Nc2ccccc2)C1 (stereo not drawn) | inactive
37 | CC(=O)c1cn(CC(=O)Nc2ccc(C)c(C)c2)c2ccccc12 | inconclusive: 0.146 µM [activator, full curve, poor fit]
38 | CCOC(=O)C1(Cc2cccc(F)c2)CCN(C(=O)c2cnc(C)cn2)CC1 | inconclusive: 20.6 µM [activator, partial curve, poor fit]
39 | CCOC(=O)CNC(=O)C(Cc1ccccc1)NS(=O)(=O)c1ccc2c(c1)CCC(=O)N2 (stereo not drawn) | inactive
40 | COc1ccc(NC(=O)c2ccc3c(c2)NC(=O)CS3)cc1S(=O)(=O)Nc1ccc(Br)cc1 | inactive
41 | COc1ccc(CC(=O)Nc2cccc(S(=O)(=O)N3CCCC3)c2)cc1OC | inconclusive: 2.91 µM [activator, single point]
42 | O=C(CCCCCCCCC(=O)N/N=C/c1ccco1)N/N=C/c1ccco1 | inconclusive: 0.0046 µM [activator, full curve, poor fit]
43 | CC(CC(=O)N(CCC1=CCCCC1)c1c(N)n(Cc2ccccc2)c(=O)[nH]c1=O)c1ccccc1 (stereo not drawn) | inconclusive: 23.1 µM [activator, single point]
